Results are given in words; binding and its absence hold for the method and conditions named. Binding seen in cells or lysates may run through a third protein. These calls come from enrichment with a bait or labelling near it, and not all partners need be listed.
B1: CPSF2 (protein, UniProt Q9P2I0 1-782)
chain: MTSIIKLTTLSGVQEESALCYLLQVDEFRFLLDCGWDEHFSMDIIDSLRKHVHQIDAVLLSHPDPLHLGALPYAVGKLGLNCAIYATIPVYKMGQMFMYDLYQSRHNTEDFTLFTLDDVDAAFDKIQQLKFSQIVNLKGKGHGLSITPLPAGHMIGGTIWKIVKDGEEEIVYAVDFNHKREIHLNGCSLEMLSRPSLLITDSFNATYVQPRRKQRDEQLLTNVLETLRGDGNVLIAVDTAGRVLELAQLLDQIWRTKDAGLGVYSLALLNNVSYNVVEFSKSQVEWMSDKLMRCFEDKRNNPFQFRHLSLCHGLSDLARVPSPKVVLASQPDLECGFSRDLFIQWCQDPKNSIILTYRTTPGTLARFLIDNPSEKITEIELRKRVKLEGKELEEYLEKEKLKKEAAKKLEQSKEADIDSSDESDIEEDIDQPSAHKTKHDLMMKGEGSRKGSFFKQAKKSYPMFPAPEERIKWDEYGEIIKPEDFLVPELQATEEEKSKLESGLTNGDEPMDQDLSDVPTKCISTTESIEIKARVTYIDYEGRSDGDSIKKIINQMKPRQLIIVHGPPEASQDLAECCRAFGGKDIKVYMPKLHETVDATSETHIYQVRLKDSLVSSLQFCKAKDAELAWIDGVLDMRVSKVDTGVILEEGELKDDGEDSEMQVEAPSDSSVIAQQKAMKSLFGDDEKETGEESEIIPTLEPLPPHEVPGHQSVFMNEPRLSDFKQVLLREGIQAEFVGGVLVCNNQVAVRRTETGRIGLEGCLCQDFYRIRDLLYEQYAIV
B2: Cleavage and Polyadenylation Specific Factor 3 (CPSF3) (protein, UniProt Q9UKF6 1-684)
chain: MSAIPAEESDQLLIRPLGAGQEVGRSCIILEFKGRKIMLDCGIHPGLEGMDALPYIDLIDPAEIDLLLISHFHLDHCGALPWFLQKTSFKGRTFMTHATKAIYRWLLSDYVKVSNISADDMLYTETDLEESMDKIETINFHEVKEVAGIKFWCYHAGHVLGAAMFMIEIAGVKLLYTGDFSRQEDRHLMAAEIPNIKPDILIIESTYGTHIHEKREEREARFCNTVHDIVNRGGRGLIPVFALGRAQELLLILDEYWQNHPELHDIPIYYASSLAKKCMAVYQTYVNAMNDKIRKQININNPFVFKHISNLKSMDHFDDIGPSVVMASPGMMQSGLSRELFESWCTDKRNGVIIAGYCVEGTLAKHIMSEPEEITTMSGQKLPLKMSVDYISFSAHTDYQQTSEFIRALKPPHVILVHGEQNEMARLKAALIREYEDNDEVHIEVHNPRNTEAVTLNFRGEKLAKVMGFLADKKPEQGQRVSGILVKRNFNYHILSPCDLSNYTDLAMSTVKQTQAIPYTGPFNLLCYQLQKLTGDVEELEIQEKPALKVFKNITVIQEPGMVVLEWLANPSNDMYADTVTTVILEVQSNPKIRKGAVQKVSKKLEMHVYSKRLEIMLQDIFGEDCVSVKDDSILSVTVDGKTANLNLETRTVECEEGSEDDESLREMVELAAQRLYEALTPVH
B3: CSTF2 (protein, UniProt P33240 1-577)
chain: MAGLTVRDPAVDRSLRSVFVGNIPYEATEEQLKDIFSEVGPVVSFRLVYDRETGKPKGYGFCEYQDQETALSAMRNLNGREFSGRALRVDNAASEKNKEELKSLGTGAPVIESPYGETISPEDAPESISKAVASLPPEQMFELMKQMKLCVQNSPQEARNMLLQNPQLAYALLQAQVVMRIVDPEIALKILHRQTNIPTLIAGNPQPVHGAGPGSGSNVSMNQQNPQAPQAQSLGGMHVNGAPPLMQASMQGGVPAPGQMPAAVTGPGPGSLAPGGGMQAQVGMPGSGPVSMERGQVPMQDPRAAMQRGSLPANVPTPRGLLGDAPNDPRGGTLLSVTGEVEPRGYLGPPHQGPPMHHVPGHESRGPPPHELRGGPLPEPRPLMAEPRGPMLDQRGPPLDGRGGRDPRGIDARGMEARAMEARGLDARGLEARAMEARAMEARAMEARAMEARAMEVRGMEARGMDTRGPVPGPRGPIPSGMQGPSPINMGAVVPQGSRQVPVMQGTGMQGASIQGGSQPGGFSPGQNQVTPQDHEKAALIMQVLQLTADQIAMLPPEQRQSILILKEQIQKSTGAP

Amino acid sequences for entries named in this document (tags omitted).
UniProt Q7Z6E9: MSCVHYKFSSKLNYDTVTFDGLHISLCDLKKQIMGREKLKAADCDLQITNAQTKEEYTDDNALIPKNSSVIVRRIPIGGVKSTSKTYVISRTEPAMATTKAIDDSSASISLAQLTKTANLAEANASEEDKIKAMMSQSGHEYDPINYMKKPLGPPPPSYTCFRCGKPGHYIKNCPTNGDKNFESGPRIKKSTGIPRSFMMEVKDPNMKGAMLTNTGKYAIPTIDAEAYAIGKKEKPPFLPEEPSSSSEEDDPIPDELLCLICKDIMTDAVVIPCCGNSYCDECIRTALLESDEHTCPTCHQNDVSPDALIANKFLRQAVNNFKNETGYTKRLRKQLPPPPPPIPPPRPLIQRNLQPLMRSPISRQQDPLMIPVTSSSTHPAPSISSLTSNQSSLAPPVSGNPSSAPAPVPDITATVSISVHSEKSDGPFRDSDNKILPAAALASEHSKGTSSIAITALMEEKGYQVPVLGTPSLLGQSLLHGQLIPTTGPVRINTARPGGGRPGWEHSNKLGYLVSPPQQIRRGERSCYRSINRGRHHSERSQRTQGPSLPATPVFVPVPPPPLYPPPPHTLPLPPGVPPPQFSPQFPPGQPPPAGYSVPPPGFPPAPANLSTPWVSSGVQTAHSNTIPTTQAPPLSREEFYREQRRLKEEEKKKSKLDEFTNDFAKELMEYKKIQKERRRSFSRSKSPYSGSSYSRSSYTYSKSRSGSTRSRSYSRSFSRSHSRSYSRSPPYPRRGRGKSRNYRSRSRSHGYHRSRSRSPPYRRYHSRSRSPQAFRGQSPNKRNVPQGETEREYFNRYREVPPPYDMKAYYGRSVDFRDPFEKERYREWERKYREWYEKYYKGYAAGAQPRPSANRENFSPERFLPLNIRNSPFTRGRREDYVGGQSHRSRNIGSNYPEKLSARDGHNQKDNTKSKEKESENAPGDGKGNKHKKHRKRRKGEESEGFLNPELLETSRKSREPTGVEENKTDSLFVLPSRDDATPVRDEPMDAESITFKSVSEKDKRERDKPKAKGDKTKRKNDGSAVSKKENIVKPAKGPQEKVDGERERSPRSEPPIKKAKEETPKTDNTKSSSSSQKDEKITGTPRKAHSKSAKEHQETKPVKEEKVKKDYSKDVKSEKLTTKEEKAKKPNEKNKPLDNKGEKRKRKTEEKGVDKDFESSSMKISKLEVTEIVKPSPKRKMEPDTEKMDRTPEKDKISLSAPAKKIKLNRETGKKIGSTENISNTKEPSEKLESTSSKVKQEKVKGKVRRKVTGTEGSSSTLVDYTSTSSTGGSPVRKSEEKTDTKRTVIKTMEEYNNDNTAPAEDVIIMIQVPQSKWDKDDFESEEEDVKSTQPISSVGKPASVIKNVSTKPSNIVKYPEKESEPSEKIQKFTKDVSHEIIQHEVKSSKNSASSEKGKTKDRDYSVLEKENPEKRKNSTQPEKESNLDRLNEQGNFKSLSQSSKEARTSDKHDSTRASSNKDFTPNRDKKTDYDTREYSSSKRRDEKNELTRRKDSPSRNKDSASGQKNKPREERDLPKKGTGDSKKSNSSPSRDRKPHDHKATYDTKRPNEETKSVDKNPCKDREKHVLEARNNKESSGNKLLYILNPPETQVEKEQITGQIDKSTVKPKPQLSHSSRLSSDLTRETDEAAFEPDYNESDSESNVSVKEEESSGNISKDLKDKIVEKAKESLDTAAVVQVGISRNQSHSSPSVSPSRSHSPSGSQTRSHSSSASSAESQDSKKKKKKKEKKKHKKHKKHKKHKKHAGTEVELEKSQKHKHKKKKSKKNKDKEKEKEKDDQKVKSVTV

The binders below were run against RB Binding Protein 6, Ubiquitin Ligase (RBBP6), bait of the IP-MS (human) (UniProt Q7Z6E9) (assay: affinity purification with mass spectrometry; immunoprecipitation of RBBP6 coupled with mass spectrometry (IP-MS); cells, bait and antibody not told).

| binding | Binder |
| --- | --- |
| binds | B1 |
| binds | B2 |
| binds | B3 |
